From patent US20230021365A1, “COMPOSITION COMPRISING P53-ACTIVATING PEPTIDE” (SUPADELIXIR INC., priority 2019, published 2023)
Some results were stated once for a whole list of compounds, not compound by compound.

tested on: interaction between p53 and POLII; assay: in situ PLA (proximity ligation assay) of physical binding between p53 and RNA Polymerase II (POLII) in HaCaT cells; type: cell-based, human; conditions: peptide 20 μM, 1 hour, FIG. 3
Protocol: After treating cells with the peptides of the present invention, the effects thereof on the physical binding between p53 and RNA Polymerase II (POLII) were evaluated through an in situ PLA (proximity ligation assay) method. HaCaT cells (human keratinocytes, CLS) were added at 4.5×10^4 cells per well, along with a DMEM containing 10% fetal bovine serum, to each well of a 24-well microplate and then cultured at 37° C. in a 5% CO2 incubator for 24 hours. The peptide solutions of Example 2 were added thereto so that the concentration of each peptide in the medium was 20 μM, followed by incubating for 1 hour under the same condition. […] The cells of each well were washed with PBS, fixed by treating with 2% formaldehyde for 15 minutes, and then treated with 0.1% TritonX-100 for 5 minutes to increase antibody permeability into the cells. Anti-p53 polyclonal antibody (Abcam, UK) and anti-POLII polyclonal antibody (Santa Cruz, Calif., USA) were added thereto. After the PLA probe was added thereto using the in situ PLA kit (Sigma-Aldrich), hybridization, ligation, amplification and mounting steps were carried out according to the manufacturer's protocol. Each physical interaction between p53 and POLII was quantified by measuring the luminescence signals (PLA signals) detected in each cell with a confocal laser microscope (Olympus fluoview FW1000; Olympus, Tokyo, Japan).

| Substance | increase in the interaction between p53 and POLII in comparison with the control group |
| --- | --- |
| Leu-Thr-Asp (LTD) [Pep 18] | more than 2.5 fold |
| Leu-Ser-Asp (LSD) [Pep 2] | more than 2.5 fold |
| Leu-Tyr-Asp (LYD) [Pep 9] | more than 2.5 fold |
| Leu-Gly-Asp (LGD) [Pep 3] | more than 2.5 fold |
| Leu-Arg-Asp (LRD) [Pep 6] | more than 2.5 fold |
| Leu-Lys-Asp (LKD) [Pep 7] | more than 2.5 fold |
| Leu-Ala-Asp (LAD) [Pep 4] | more than 2.5 fold |
